## Assay results

From PubChem BioAssay record AID1053133 (Broad Institute, 2014).

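Vaccinia-infected cells with a two-color viral stage reporter; Venus fluorescence read on a plate reader; the cell line is not named here; timing not stated here.
The test concentration is not given here.
Percent change in Venus reporter signal; lower (more negative) values mean stronger inhibition of that viral stage.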

Values are in %.
How 0% and 100% were set is not given here.
Common to all entries: measured here: Venus reporter, other viral stage.
This is a side read-out of the assay, for part of the compounds, not drawn at random.

SMILES: C[C@H](CO)N1C[C@H](C)[C@H](CN(C)C(=O)[C@H](Cc2ccccc2)N(C)C)OCc2ccccc2-c2c(n(C)c3ccccc23)C1=O
activity change (Venus) (%): -49.25

SMILES: Cc1ccccc1-c1ccc([C@@H]2[C@H](CO)N3CCCCN(C(=O)Nc4ccccc4)C[C@@H]23)cc1
activity change (Venus) (%): -82.57

SMILES: COc1ccc(CN(C)C[C@@H]2OCCCC[C@@H](C)Oc3ccc(NC(=O)C4CCCCC4)cc3C(=O)N([C@H](C)CO)C[C@H]2C)cc1
activity change (Venus) (%): -57.78

SMILES: CCCC#Cc1ccc2c(c1)O[C@@H](CN(C)C(=O)Nc1ccccc1F)[C@H](C)CN([C@@H](C)CO)S2(=O)=O
activity change (Venus) (%): -34.76

SMILES: C[C@H]1CCCCO[C@@H](CN(C)S(=O)(=O)c2ccc(Cl)cc2)[C@@H](C)CN([C@@H](C)CO)C(=O)c2cc(NS(=O)(=O)c3ccccc3)ccc2O1
activity change (Venus) (%): -34.61

SMILES: C[C@H](CO)N1C[C@H](C)[C@H](CN(C)C(=O)Nc2cccc3ccccc23)Oc2ncc(/C=C/c3ccccc3)cc2C1=O
activity change (Venus) (%): -21.95

SMILES: C[C@@H]1CN([C@H](C)CO)C(=O)c2cc(NC(=O)Nc3ccc(C(F)(F)F)cc3)ccc2O[C@@H]1CN(C)S(=O)(=O)c1ccc(F)cc1
activity change (Venus) (%): -22.98

SMILES: C[C@@H]1CN([C@H](C)CO)C(=O)c2c(c3ccccc3n2C)-c2ccccc2CO[C@H]1CN(C)C(=O)[C@@H](Cc1ccccc1)N(C)C
activity change (Venus) (%): -34.37

SMILES: N#Cc1ccc(-c2ccc([C@@H]3[C@@H](CO)N4CCCCN(C(=O)Nc5ccc(F)cc5)C[C@@H]34)cc2)cc1
activity change (Venus) (%): -32.68

SMILES: C[C@H](CO)N1C[C@H](C)[C@H](CN(C)Cc2ccc(Cl)c(Cl)c2)Oc2c(NC(=O)NC3CCCCC3)cccc2C1=O
activity change (Venus) (%): -58.4

SMILES: CO[C@@H]1CN(C)C(=O)c2ccc(NC(=O)Nc3ccc(C(F)(F)F)cc3)cc2OC[C@@H](C)NC[C@@H]1C
activity change (Venus) (%): -35.97

SMILES: C[C@@H]1CN([C@@H](C)CO)C(=O)c2cccc(NC(=O)CCCCCC(=O)Nc3ccccc3N)c2O[C@H]1CN(C)CC1CCCCC1
activity change (Venus) (%): -63.35

SMILES: C[C@@H]1CN([C@@H](C)CO)C(=O)c2cc(NC(=O)NC3CCCCC3)ccc2O[C@H]1CN(C)Cc1ccc(-c2ccccc2)cc1
activity change (Venus) (%): -31.59

SMILES: Cc1ccc(S(=O)(=O)N(C)C[C@@H]2OCc3ccccc3-c3c(n(C)c4ccccc34)C(=O)N([C@@H](C)CO)C[C@H]2C)cc1
activity change (Venus) (%): -52.04

SMILES: O=C(C1CCCC1)N1C[C@@H]2N[C@H](C1)C2c1ccc(/C=C/c2ccccc2)cc1 (some centres unmarked)
activity change (Venus) (%): -85.6

SMILES: CO[C@@H]1CN(C)C(=O)c2cc(NC(=O)c3ccc(-c4ccccc4)cc3)ccc2OC[C@H](C)NC[C@H]1C
activity change (Venus) (%): -83.64

SMILES: C[C@@H]1CCCCO[C@@H](CN(C)Cc2ccc3c(c2)OCO3)[C@H](C)CN([C@H](C)CO)C(=O)c2cc(NS(=O)(=O)c3ccc(F)cc3)ccc2O1
activity change (Venus) (%): -36.13

SMILES: C/C=C/c1ccc2c(c1)O[C@H](CN(C)C(=O)Nc1ccc(C(F)(F)F)cc1)[C@H](C)CN([C@@H](C)CO)S2(=O)=O
activity change (Venus) (%): -32.53

SMILES: CCCNC(=O)N1CC(=O)N2[C@H](C1)[C@@H](c1ccc(C#Cc3cccc(OC)c3)cc1)[C@@H]2CO
activity change (Venus) (%): -68.91

SMILES: Cc1ccc(S(=O)(=O)N(C)C[C@H]2Oc3c(NS(=O)(=O)c4ccc(Cl)cc4)cccc3C(=O)N([C@@H](C)CO)C[C@@H]2C)cc1
activity change (Venus) (%): -35.17

SMILES: C[C@H](CO)N1C[C@H](C)[C@@H](CN(C)Cc2ccc(C(F)(F)F)cc2)Oc2ccc(NS(C)(=O)=O)cc2CC1=O
activity change (Venus) (%): -86.53

SMILES: C[C@H]1CN([C@@H](C)CO)C(=O)c2cc(NC(=O)CCCN(C)C)ccc2O[C@H]1CN(C)Cc1ccc(Oc2ccccc2)cc1
activity change (Venus) (%): -29.48

SMILES: COc1cccc(C#Cc2ccc([C@H]3[C@@H](CO)N4C(=O)CN(C(=O)c5ccccc5)C[C@H]34)cc2)c1
activity change (Venus) (%): -78.16

SMILES: CO[C@@H](CN(C)S(=O)(=O)c1ccc(C)cc1)[C@H](C)CN([C@@H](C)CO)S(=O)(=O)c1cccc(Cl)c1
activity change (Venus) (%): -46.88